Data published in paper PMC11024185.
Results are given in words; binding and its absence hold for the method and conditions named. Binding seen in cells or lysates may run through a third protein. Some results given as binding are weak or reduced against the parent protein; the word gives no strength. Where a sequence is shown, tags or fusion partners need not be part of it.

T1: Dbp10 (wild type, steady state, affinity tagged) (S. cerevisiae) (UniProt Q12389)
T1 sequence: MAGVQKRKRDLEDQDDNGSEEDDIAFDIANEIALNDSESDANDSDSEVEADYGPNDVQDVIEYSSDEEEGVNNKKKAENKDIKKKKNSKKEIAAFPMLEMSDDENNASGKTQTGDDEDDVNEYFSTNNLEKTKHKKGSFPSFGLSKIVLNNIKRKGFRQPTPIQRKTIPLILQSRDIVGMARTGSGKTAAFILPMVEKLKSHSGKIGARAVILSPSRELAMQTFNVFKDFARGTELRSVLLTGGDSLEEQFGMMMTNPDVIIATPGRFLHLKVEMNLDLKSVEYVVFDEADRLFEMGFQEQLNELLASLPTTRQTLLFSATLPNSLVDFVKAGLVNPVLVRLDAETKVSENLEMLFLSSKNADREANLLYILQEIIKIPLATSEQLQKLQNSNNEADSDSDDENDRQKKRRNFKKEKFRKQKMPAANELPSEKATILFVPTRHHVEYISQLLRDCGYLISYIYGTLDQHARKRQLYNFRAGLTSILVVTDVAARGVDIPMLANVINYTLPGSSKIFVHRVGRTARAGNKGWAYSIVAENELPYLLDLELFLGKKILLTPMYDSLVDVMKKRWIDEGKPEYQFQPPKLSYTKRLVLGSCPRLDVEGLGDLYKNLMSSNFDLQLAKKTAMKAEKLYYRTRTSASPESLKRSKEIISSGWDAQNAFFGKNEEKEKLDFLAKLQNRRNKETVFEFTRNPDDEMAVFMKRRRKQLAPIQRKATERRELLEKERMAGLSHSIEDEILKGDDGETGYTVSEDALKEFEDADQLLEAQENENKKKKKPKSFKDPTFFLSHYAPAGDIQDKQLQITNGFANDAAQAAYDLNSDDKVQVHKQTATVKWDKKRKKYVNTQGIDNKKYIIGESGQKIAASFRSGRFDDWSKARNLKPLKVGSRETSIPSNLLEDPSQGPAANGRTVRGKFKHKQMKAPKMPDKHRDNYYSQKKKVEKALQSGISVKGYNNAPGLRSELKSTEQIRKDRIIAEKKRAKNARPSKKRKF

T2: Dbp10^R522V (slow-hydrolysis mutant, overexpressed, N-terminal 3xStrep-sfGFP-bdNEDD-MYC tag) (S. cerevisiae) (UniProt Q12389)
T2 sequence: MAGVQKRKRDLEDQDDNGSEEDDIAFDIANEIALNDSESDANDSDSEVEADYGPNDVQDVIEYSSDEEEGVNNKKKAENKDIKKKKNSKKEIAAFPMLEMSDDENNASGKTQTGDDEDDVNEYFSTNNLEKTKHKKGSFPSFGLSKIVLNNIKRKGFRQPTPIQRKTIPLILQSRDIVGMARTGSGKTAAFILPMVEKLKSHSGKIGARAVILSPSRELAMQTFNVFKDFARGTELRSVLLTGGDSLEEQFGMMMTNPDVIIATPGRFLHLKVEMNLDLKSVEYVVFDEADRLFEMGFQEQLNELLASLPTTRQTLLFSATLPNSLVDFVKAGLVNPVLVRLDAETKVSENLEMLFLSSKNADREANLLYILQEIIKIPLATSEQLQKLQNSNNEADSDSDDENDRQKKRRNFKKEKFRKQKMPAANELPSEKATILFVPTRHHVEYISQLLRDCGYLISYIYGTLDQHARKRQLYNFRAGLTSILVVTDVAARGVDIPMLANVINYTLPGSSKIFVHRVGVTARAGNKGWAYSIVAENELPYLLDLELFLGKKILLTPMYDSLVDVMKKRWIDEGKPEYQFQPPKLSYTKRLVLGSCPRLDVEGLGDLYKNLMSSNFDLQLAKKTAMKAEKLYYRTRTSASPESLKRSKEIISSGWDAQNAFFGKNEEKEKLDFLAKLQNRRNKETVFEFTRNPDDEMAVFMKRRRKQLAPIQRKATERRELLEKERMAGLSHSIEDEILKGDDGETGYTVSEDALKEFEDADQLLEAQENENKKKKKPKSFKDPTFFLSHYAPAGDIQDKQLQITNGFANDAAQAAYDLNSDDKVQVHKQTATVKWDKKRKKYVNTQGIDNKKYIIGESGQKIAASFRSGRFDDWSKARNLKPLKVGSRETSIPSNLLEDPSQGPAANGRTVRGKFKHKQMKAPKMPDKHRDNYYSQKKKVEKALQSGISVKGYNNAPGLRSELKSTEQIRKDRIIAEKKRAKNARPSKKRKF


Tests used:
[1] = target: T1, Dbp10 (wild type, steady state, affinity tagged) (S. cerevisiae); assay: tandem affinity purification (split tags); pre-60S particles from yeast lysate: IgG Sepharose (2xProteinA on Ssf1 or Noc2), 3C protease cleavage, then Strep-Tactin (Dbp10); Ribo-buffer pH 8.0; dbp10^R522V overexpressed, or steady-state DBP10 with 50 µM ADP-BeF3, or SPB4-AID depletion with auxin and 50 µM ADP-BeF3; composition of the particles as told with Supplementary Fig. 1b, c and the cryo-EM models
[2] = target: T2, Dbp10^R522V (slow-hydrolysis mutant, overexpressed, N-terminal 3xStrep-sfGFP-bdNEDD-MYC tag) (S. cerevisiae); assay: as above

Binder	binding [1]	binding [2]
Noc3 (protein, UniProt Q07896 1-663) MAKRNRSQFRIQERTAKKRKHEDSLLEGNVFQNAPEDMDENTIYSAKGSSWDEEEQDYEMVPRKNRSDTSNLVEGLPIKVNGKVERKLHKAQEKPKDDDEEDEDSNDSSEDDEGPNEEQEAEAKEDEPDTEEKILQLKEDIADLVTKVMEEPEENTAALGRLCKMVESKNPNTCKFSMLALVPVFKSIIPGYRIRPLTETEKKEKVSKEVSKLRNFEQALVYNYKNYVGRLQSLSKTPSNAAPIQVSLGILATQAAKELISTASHFNFRTDIFTLLLRRICKPRISTDPTSIQIIQTFETLLNEDEEGSISFEILRIFNKILKTRNFNIEESVLNMLLSLDVLHDYDPNTKLKGNVSAPKLKKKDRVHLSKKQRKARKEMQQIEEEMRNAEQAVSAEERERNQSEILKIVFTIYLNILKNNAKTLIGSVLEGLTKFGNMANFDLLGDFLEVMKELISDTEFDNLSSAEVRKALLCIVSAFSLISNTQYMKVNVDLSKFVDGLYALLPYICLDADIELSYRSLRLADPLNNEIIKPSVNVSTKAELLLKALDHVFFRSKSGTKERATAFTKRLYMCISHTPEKTSIAILKFIDKLMNRYPEISGLYSSEDRIGNGHFIMEADNPSRSNPEAATLWDNALLEKHYCPVVTKGLRSLSSRSKECSK	binds	
Noc2 (genomic C-terminal 3xFLAG-3C-2xProteinA tag) (protein, UniProt P39744 1-710) MGKVSKSTKKFQSKHLKHTLDQRRKEKIQKKRIQGRRGNKTDQEKADAAGTREQQQLKKSAKEEVFKDMSVETFFEKGIEIPKENKKLKKKTTKEQSDEDSSSSEEEEDMGQSMAKLAEKDPEFYKYLEENDKDLLDFAGTNPLDGIDSQDEGEDAERNSNIEEKSEQMELEKEKIELSLKLVRKWKKQLHDSPSLKLLRNIISAFKVAVNLNKEENIEDYKYAITDEKAFHELMFMVLKDVPQAIQKMAPYKIVKGARTLPNGGNVSRVSSIVKSHAGSLLILLNDITNTETAALVLHSVNELMPYLLSYRRILKELIKSIVGVWSTTRELETQIASFAFLINTTKEFKKSMLETTLKTTYSTFIKSCRKTNMRSMPLINFQKNSAAELFGIDEVLGYQVGFEYIRQLAIHLRNTMNATTKKSSKINSAEAYKIVYNWQFCHSLDFWSRVLSFACQPEKENGSESPLRQLIYPLVQVTLGVIRLIPTPQFFPLRFYLIKSLIRLSQNSGVFIPIYPLLSEILTSTAFTKAPKKSPNLAAFDFEHNIKCTQAYLNTKIYQEGLSEQFVDLLGDYFALYCKNIAFPELVTPVIISLRRYIKTSTNVKLNKRLSTVVEKLNQNSTFIQEKRSDVEFGPTNKSEVSRFLNDVAWNKTPLGSYVAVQREVKEEKARLMRESMEEQDKERETEEAKLLNSLESDDDNEDVEMSDA	binds	

Further lines, results first:

binding [1]	binding [2]	Binder
binds		Rrp14 (protein, UniProt P36080 1-434) MSNSLEERLRANSSAFDGLLALIPAKYYYDEKSQEQWKAKKKTKEQSKNDKLKKLDPEQRDDETSSTLEVMKKKEKDAKPVVLPGEKFKHMKMQKQKEATSKVEGDSDLNVEVNDPMIIAPDEDEEEEEDIKVIFDDEGNEIPLESKKDTTEPDRSVEKKSITEEEKLQRKKNLEALRSKLQAKISDMKSKRKAPGSREAILAQRKRKEELKKRKRLESEQEQDQDEIASDSDMEDIDSDLENNSKKRFKKGKKDSEINADGVMFQNIIFDDGARATSDLQRLRKAGRTKGPAKNDVKSHLKLLEAKKNKMEAKDELEQIKQKEKEKWQKAMLQAEGIKIRDDEKLLRKAIKRKEAQKRKSAIEWSERKRVVEDTISERQKRREENLRIRKDNKGKKRNKQEKMKRKYVGSAVPKKRAGFEGRLKTGKKKGGPK
binds	binds	Ssf1 (genomic C-terminal 3xFLAG-3C-2xProteinA tag) (protein, UniProt P38789 1-453) MAKRRQKKRTHAQLTPEQEQGIPKSMVIRVGQTSLANHSLNQLVKDFRQIMQPHTAIKLKERKSNKLKDFVVMCGPLGVTHLFMFTQSEKTGNVSLKIARTPQGPTVTFQVLDYSLGRDIKKFLKRPKSLNNDDVLNPPLLVLNGFSTSKRSGEDDQDVNVEKVIVSMFQNIFPPLNPARTSLNSIKRVFMINKDRETGEISMRHYFIDIREVEISRNLKRLYKAKNNLSKTVPNLHRKEDISSLILDHDLGAYTSESEIEDDAIVRVVDNQDVKAKHSQSLKSQRTPVEKKDNKEREKETEEEDVEMEEPKPSENLQPTPRKKAIKLTELGPRLTLKLVKIEEGICSGKVLHHEFVQKSSEEIKALEKRHAAKMRLKEQRKKEQEENIAKKKAVKDAKKQRKLERRKARAAEGGEGQGKDDAMSDDESSSSDSEHYGSVPEDLDSDLFSEVE
binds		Rrp15 (protein, UniProt Q06511 1-250) MGSKHRVDTKDKKRTRKNAEFGREKRNSGNQELSNEPEKDTIMEGDEAEEDEQNSSSDESSKIIDNEQSDAEEDDDEEEEDDDFPRKKKSKNSKHDDGSTGFSAAVNAILSSHLKAYDRKDPIMARNKKVLKQSESEKLEYKAKKALLAEKKKLLGKARKTDIIPIASGEDRSENIRKVLEKETALRKIAQKGAVKLFNAILATQVKTEKEVSENLSEIKNKEEKKELITEVSKEKFLDLVKAAAGSDNE
